Earlier results as cited in patent publication US9883997B2, “Cosmetic compositions with tricyclodecane amides” (Conopco, Inc., priority 2013, dated 2018).
Structures can show the parent of a compound that is named as a salt. Some entries share one result that the patent states for a list of compounds.

Conditions: liquid cosmetic agents, Table 2; cited from earlier work

Molecule	Log Po/w
CC(C)CCCCCCCCCCCCCCCOC(=O)CC(O)(CC(=O)OCCCCCCCCCCCCCCCC(C)C)C(=O)OCCCCCCCCCCCCCCCC(C)C [Pelemol TISC, Triisostearyl citrate]	>6
Triisostearin [Pelemol GTIS]	>6
